Experimental data from PubChem BioAssay AID493014 (National Center for Advancing Translational Sciences (NCATS), 2011).
The campaign covered roughly 340,000 compounds. About 170 (0.05%) were called active. Inconclusive means that the source gave no clear call. Such entries were picked first, then a sample of the others. The call rests on the fitted dose curve; in most records, active means well fitted inhibition curve with a large enough effect in the signal ratio, with a control signal flat (not every such curve was filed as active); inconclusive means small, poorly fitted or top-dose-only effect, or effect the other way, or a change in a side signal; inactive means flat fitted curve, though single readings scatter; the % refers to the signal ratio. Potencies of inconclusive entries are doubtful fits and often do not repeat.

Assay: qHTS Assay to Find Inhibitors of Chronic Active B-Cell Receptor Signaling;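 on activity change, negative = inhibition: plate controls were basal doxycycline-induced cells for no effect and cells given 10 µM MG132 for full effect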
Details: ABC-DLBCL IkBa-CBG/CBR reporter, luminescence ratio (green luciferase fused to IkBa over red control in TMD8 lymphoma cells), 4 h; activity change, negative = inhibition: at 46.1 µM (top of the series)
Summary of the method: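 Cell line TMD8 (human ABC DLBCL), stably expressing tet-inducible CBG68-IkBa fusion and CBR; IMDM/0.5% FBS; cpd up to 46 uM; dox induction, 4 h, 37C/5% CO2; dual luminescence; green/red ratio; MG132 control.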
Potency means the concentration at half of the fitted maximal effect.

SMILES | activity change, negative = inhibition | Potency
O=C(c1sc2ccccc2c1Cl)N1CCN(c2ncccn2)CC1 | inconclusive: -4.97% | –
CCOC(=O)c1sc(N2C(=O)C(O)=C(C(=O)c3ccco3)C2c2ccco2)nc1C (centres undefined) | inconclusive: -5.5% | –
O=C(CCc1nc2ccccc2c(=O)[nH]1)Nc1cc(Cl)ccc1N1CCCC1 | inconclusive: 0.561% | –
Cc1ccc(-c2c[n+](CC(=O)Nc3ccc(C)cc3C)c3n2CCC3)cc1 | inactive | –
COc1cccc(CN2CCC(N(CCc3ccccc3)Cc3ccccc3)CC2)c1OC | inactive | –
CC(=O)N1CCc2cc(C(=O)CN3CCN(c4ccccc4F)CC3)ccc21 | inactive | –
CCC(=O)Nc1nn(C)c2nc3c(C)cccc3cc12 | inactive | –
COc1ccc(CCNC(=O)C(NC(=O)OCc2ccccc2)C(C)C)cc1OC (centres undefined) | inconclusive: 8.62% | –
COc1ccc(-c2noc(CN(C(=O)c3ccc4c(c3)OCO4)C(C)C)n2)cc1OC | inconclusive: 0.511% | –
CCOC(=O)N1CCN(C(=S)NC(=O)c2ccc(F)cc2)CC1 | inconclusive: 3.4% | –
Cc1cc(C)cc(N(C(C)C(=O)NCCC2=CCCCC2)S(C)(=O)=O)c1 (centres undefined) | – | inconclusive: 7.31 µM [rising, partial curve, poor fit]
O=C(Nc1ccc(Cl)cn1)c1cc2ccccc2o1 | – | inconclusive: 18.4 µM [falling, partial curve]
O=C(N/N=C/c1ccc(-c2cccc(C(F)(F)F)c2)o1)c1ccccc1Br | inactive | –
Cc1ccc(NC(=O)c2cc(S(=O)(=O)NC3CCCCC3)ccc2F)cc1Cl | inconclusive: 18.5% | –
CN(C)S(=O)(=O)c1cccc(NC(=O)c2ccccc2OCc2ccc(F)cc2)c1 | inactive | –
O=C1c2ccccc2NC(c2ccc(-c3cccc([N+](=O)[O-])c3)o2)N1O (centres undefined) | – | inconclusive: 4.61 µM [falling, single point]
COC(=O)C1CCN(CC(=O)Nc2ccc3c(c2)OCCO3)CC1 | inconclusive: 1.02% | –
O=C(CSc1ncn(-c2ccccc2)n1)Nc1nc2ccccc2s1 | inconclusive: 9.88% | –
C[N+]12CCCCC1[C@@H](CO)CCC2 (some centres undefined) | inconclusive: 5.08% | –
COc1ccc(CNc2nc3ccccc3s2)cc1OC | inconclusive: 11.5% | –
COc1ccc(NC(C)=O)cc1CNC(=O)CN1CCOCC1 | inactive | –
NC(=O)COc1ccc2cc(-c3ccc(F)cc3)c(=O)oc2c1 | inactive | –
CC(=O)Nc1cccc(/C(C)=N\NC(=O)c2ccc(Cn3nc([N+](=O)[O-])c(Cl)c3C)o2)c1 | – | inconclusive: 20.6 µM [falling, single point]
O=C(CSc1cccc[n+]1[O-])Nc1cccc(Oc2ccccc2)c1 | – | inconclusive: 35.5 µM [falling, single point]
S=c1[nH]nc(-c2ccco2)n1-c1cccc2ccccc12 | inactive | –
O=C(Nc1cc(N2CCOCC2)ncn1)NC1(C(F)(F)F)Oc2ccc(Cl)cc2O1 (centres undefined) | inconclusive: -17% | –
CCC(=O)N1CCc2cc(CNC(=O)Cc3ccc(F)cc3)ccc21 | inconclusive: 5.48% | –

SMILES | activity change, negative = inhibition | Potency
COC(=O)c1ccc(C[n+]2ccccc2)cc1 | inactive | –
Cc1ccc(N2C(=O)c3ccccc3C2=O)cc1C | – | inconclusive: 25.9 µM [falling, single point]
Cc1ccc(NC(=O)CSc2nc(=O)n(Cc3ccco3)c3c2CCC3)cc1F | – | inconclusive: 35.5 µM [rising, single point]
COc1cccc(Oc2ccc(C(F)(F)F)cc2NC(=O)CN2C(=O)NC3(CCCC3)C2=O)c1 | inconclusive: 2.28% | –
CCn1c(=O)cc(SCC(=O)NCCCN2CCN(c3ccc(F)cc3)CC2)c2ccccc21 | inactive | –
CC1C(=O)N2CCCc3cc(NC(=O)C(=O)NCCCc4ccccc4)cc1c32 (centres undefined) | inactive | –
COc1cc([N+](=O)[O-])cc(/C=N/NC(=O)C(C)Nc2ccccc2C)c1O (centres undefined) | inconclusive: -2.25% | –
CCC(=O)N1CCc2cc(CNC(=O)c3ccc(OC)cc3)ccc21 | – | inconclusive: 3.16 µM [falling, single point]
CCCCNc1nc(CC)c2c(c1C#N)CCCC2 | inactive | –
COc1ccc(CCNC(=O)CN2c3cccc4cccc(c34)S2(=O)=O)cc1OC | inconclusive: -3.39% | –
Nc1c(C(=O)O)cnn1-c1ccccc1 | – | inconclusive: 5.01 µM [rising, partial curve, poor fit]
CN(CC(=O)N1CCCc2c1c(=O)oc1ccc(O)cc21)Cc1ccccc1 | inactive | –
CC(C)(C)NC(=O)CN(C(=O)c1csnn1)c1ccccc1-c1ccccc1 | inconclusive: 0.346% | –
CCc1nnc(NS(=O)(=O)c2ccc(N/C=C/C(=O)c3ccc(C)cc3)cc2)s1 | inconclusive: 4.13% | –
COc1ccc(CS(=O)(=O)/C(Cl)=C(/Cl)C(=O)Nc2ccc(OC)nc2)cc1 | – | inconclusive: 8.2 µM [rising, partial curve]
C/C(CC(=O)NCCN1CCOCC1)=N\NC(=O)c1ccncc1 | inconclusive: -20.4% | –
CC1C(=O)NN=C1C(=O)N/N=C\C(Br)=C\c1ccccc1 (centres undefined) | inconclusive: 5.3% | –
COc1ccc(NC(=O)CN2CCCCC2)cc1 | inconclusive: 5.91% | –
C/C=C\C=C/C(=O)Nc1cccc(C2=NOC3(C2)C[C@@H](C(N)=O)N(C(=O)COc2ccc(Cl)cc2)C3)c1 (some centres undefined) | inconclusive: -2.64% | –
Cc1cccc(N(Cc2cc3cc(C)ccc3[nH]c2=O)C(=O)c2cccs2)c1 | inactive | –
CCOC(=O)CCCNC(=O)c1cncc(Br)c1 | inconclusive: -17.3% | –
CCCCSc1nnc(-c2ccccc2NC(C)=O)c(=O)[nH]1 | inconclusive: -6.61% | –
CCOc1ccc(NC(=O)CN(C)C(=O)CCCOc2ccc(Cl)c(C)c2)cc1OCC | – | inconclusive: 25.1 µM [falling, single point]
O=C1C(Cl)=C(NCCN2CCOCC2)C(=O)c2ccccc21 | inconclusive: -4.68% | –
CCOC(=O)N/N=C(\CCC(=O)O)c1cccs1 | inconclusive: -16.7% | –
CSc1nc2cc(S(=O)(=O)N3CCCCC3)ccc2s1 | inactive | –
O=C(/C=C/c1cccc([N+](=O)[O-])c1)NCCSCc1c(Cl)cccc1Cl | inconclusive: 2.7% | –

A second format for some results above.
SMILES,"activity change, negative = inhibition",Potency
COc1ccc(CCNC(=O)CN2c3cccc4cccc(c34)S2(=O)=O)cc1OC,inconclusive: -3.39%,–
CCCCSc1nnc(-c2ccccc2NC(C)=O)c(=O)[nH]1,inconclusive: -6.61%,–
CCOc1ccc(NC(=O)CN(C)C(=O)CCCOc2ccc(Cl)c(C)c2)cc1OCC,–,"inconclusive: 25.1 µM [falling, single point]"
